This assay concerns the target GST-P300 fusion protein. Kind of assay: pull-down; GST fusion protein coupled to Glutathione-Sepharose 4B beads, incubated with GCDH overexpression MHCC-97H whole-cell lysates for 2 h at 4 °C, washed 3 times, Western blot; only the target purified. (In general: A western blot detects proteins with antibodies after separation by electrophoresis.)

Consider one molecule from article PMC12395558.

These are yes or no findings as the source states them, for the method shown. In cells and extracts the contact can be indirect. Binding can be weak; no strength is given.

B1: GCDH overexpressed in MHCC-97H cells (protein, UniProt Q92947 45-438)
chain: RPEFDWQDPLVLEEQLTTDEILIRDTFRTYCQERLMPRILLANRNEVFHREIISEMGELGVLGPTIKGYGCAGVSSVAYGLLARELERVDSGYRSAMSVQSSLVMHPIYAYGSEEQRQKYLPQLAKGELLGCFGLTEPNSGSDPSSMETRAHYNSSNKSYTLNGTKTWITNSPMADLFVVWARCEDGCIRGFLLEKGMRGLSAPRIQGKFSLRASATGMIIMDGVEVPEENVLPGASSLGGPFGCLNNARYGIAWGVLGASEFCLHTARQYALDRMQFGVPLARNQLIQKKLADMLTEITLGLHACLQLGRLKDQDKAAPEMVSLLKRNNCGKALDIARQARDMLGGNGISDEYHVIRHAMNLEAVNTYEGTHDIHALILGRAITGIQAFTASK
As to B1, the binding entry is “binds”.
